Data as given in EP1897948A1 (ZymoGenetics, Inc., dated 2008).
No constants are given. Whether binding was seen depends on the method and setting. Binding seen in cells or lysates may run through a third protein. Some binding calls cover weakened binding; strength is not graded here. Sequences can lack the tags named with a protein.

Target: T1, untagged human Zcyto7 (human) (UniProt Q9UHF5)
T1 sequence (looked up): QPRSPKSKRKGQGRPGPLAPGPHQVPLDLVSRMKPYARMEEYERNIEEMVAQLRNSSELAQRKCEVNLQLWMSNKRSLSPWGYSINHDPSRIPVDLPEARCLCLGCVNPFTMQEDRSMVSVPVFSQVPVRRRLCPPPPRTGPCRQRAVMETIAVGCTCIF
Experiment: co-expression, then anti-EE affinity co-purification

B1: Human Ztgfβ-9 protein (ligand)
chain: AGAPRAGRRPARPRGCADRPEELLEQLYGRLAAGVLSAFHHTLQLGPREQARNASCPAGGRPADRRFRPPTNLRSVSPWAYRISYDPARYPRYLPEAYCLCRGCLTGLFGEEDVRFRSAPVYMPTVVLRRTPACAGGRSVYTEAYVTIPVGCTCVPEPEKDADSINSSIDKQGAKLLLGPNDAPAGP
notes: Expressed in BHK cells without a tag and secreted into the medium; also called transforming growth factor beta-9
binding: binds
